Test results reported in PMC9656801 (Molecules, 2022).

Test: general procedure: Fmoc solid-phase peptide synthesis; 2-chlorotrityl chloride resin (2-CTC), 0.8 mmol/g loading; HBTU/DIPEA (primary amines), HATU/DIPEA (N-methyl amino acids); cyclisation HBTU
Conditions: for crude HPLC purity / crude yield: whole synthesis, scale of the general procedure 500 mg resin; for crude HPLC purity / final HPLC purity: 220 nm; for crude HPLC purity / final HPLC purity / cyclisation yield: trifluoroacetate salts (linear peptides); for crude yield: TFA salt; for final HPLC purity / cyclisation yield: cyclisation step; for cyclisation yield: on linear precursor

| Substance | crude HPLC purity [%] | crude yield [%] | final HPLC purity [%] | cyclisation yield [%] |
| --- | --- | --- | --- | --- |
| ALF[Sar] | 94 | 60 |  |  |
| AL[NMeF][Sar] | 97 | 100 |  |  |
| AL[dF]G |  | 100 |  |  |
| AL[dF][Sar] | 90 | 62 |  |  |
| AL[dNMeF]G | 99 | 100 |  |  |
| Cyclo [Ala-Leu-D-Phe-N-MeGly] |  |  | 95.2 | 76 |
| F[Sar]C(Bn)[Sar] | 79 | 75 |  |  |
| [NMeA]F[NMeF]G | 98 | 97 |  |  |
| [NMeA]LFG | 93 | 100 |  |  |
| [NMeA]LF[Sar] | 94 | 44 |  |  |
| [NMeA]L[NMeF]G | 91 | 100 |  |  |
| [NMeA]L[dF]G | 96 | 100 |  |  |
| [dNMeF]AF[Sar] | 99 | 99 |  |  |
| cyclo(ALF[Sar]) |  |  | 97.6 | 40 |
| cyclo(AL[NMeF][Sar]) |  |  | 92.8 | 33 |
| cyclo(AL[dF]G) |  |  | 90.1 | 5 |
| cyclo(AL[dNMeF]G) |  |  | 98.7 | 66 |
| cyclo(F[Sar]C(Bn)[Sar]) |  |  | 94.3 | 54 |
| cyclo([NMeA]F[NMeF]G) |  |  | 95.6 | 86 |
| cyclo([NMeA]LFG) |  |  | 90.7 | 48 |
| cyclo([NMeA]LF[Sar]) |  |  | 95.5 | 38 |
| cyclo([NMeA]L[NMeF]G) |  |  | 95.8 | 47 |
| cyclo([NMeA]L[dF]G) |  |  | 91.7 | 67 |
| cyclo([dNMeF]AF[Sar]) |  |  | 91.9 | 17 |

Non-standard residues stand in square brackets, D forms with d. No end group written: not given here. *: point of attachment. NMeF = CN[C@@H](Cc1ccccc1)C(=O)O; dNMeF = CN[C@H](Cc1ccccc1)C(=O)O; NMeA = CN[C@@H](C)C(=O)O; Bn = c1ccc(C*)cc1; Sar = CNCC(=O)O
